Results are given in words; binding and its absence hold for the method and conditions named. Tags and fused reporters may be left off the sequences shown.
T1: HISTONE … 9 (HDA9), yeast two-hybrid fusion (Arabidopsis thaliana) (UniProt Q8H0W2)
T1 sequence: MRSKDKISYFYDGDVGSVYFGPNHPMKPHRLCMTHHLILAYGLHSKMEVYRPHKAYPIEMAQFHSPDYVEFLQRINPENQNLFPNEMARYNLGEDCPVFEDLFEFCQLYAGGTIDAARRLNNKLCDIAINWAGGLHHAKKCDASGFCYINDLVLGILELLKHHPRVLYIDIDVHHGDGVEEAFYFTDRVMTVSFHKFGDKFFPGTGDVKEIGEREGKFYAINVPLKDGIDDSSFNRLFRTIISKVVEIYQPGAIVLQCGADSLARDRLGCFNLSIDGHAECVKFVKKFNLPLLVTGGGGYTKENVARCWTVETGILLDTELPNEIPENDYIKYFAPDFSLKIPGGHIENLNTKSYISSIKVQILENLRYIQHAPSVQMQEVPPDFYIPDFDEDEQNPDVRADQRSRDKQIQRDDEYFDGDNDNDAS

B1: ABA … 5 (ABI5), yeast two-hybrid fusion (protein, UniProt Q9SJN0 1-442)
chain: MVTRETKLTSEREVESSMAQARHNGGGGGENHPFTSLGRQSSIYSLTLDEFQHALCENGKNFGSMNMDEFLVSIWNAEENNNNQQQAAAAAGSHSVPANHNGFNNNNNNGGEGGVGVFSGGSRGNEDANNKRGIANESSLPRQGSLTLPAPLCRKTVDEVWSEIHRGGGSGNGGDSNGRSSSSNGQNNAQNGGETAARQPTFGEMTLEDFLVKAGVVREHPTNPKPNPNPNQNQNPSSVIPAAAQQQLYGVFQGTGDPSFPGQAMGVGDPSGYAKRTGGGGYQQAPPVQAGVCYGGGVGFGAGGQQMGMVGPLSPVSSDGLGHGQVDNIGGQYGVDMGGLRGRKRVVDGPVEKVVERRQRRMIKNRESAARSRARKQAYTVELEAELNQLKEENAQLKHALAELERKRKQQYFESLKSRAQPKLPKSNGRLRTLMRNPSCPL
B2: ABF1, yeast two-hybrid fusion (protein, UniProt Q9M7Q5 1-392)
chain: MGTHIDINNLGGDTSRGNESKPLARQSSLYSLTFDELQSTLGEPGKDFGSMNMDELLKNIWTAEDTQAFMTTTSSVAAPGPSGFVPGGNGLQRQGSLTLPRTLSQKTVDEVWKYLNSKEGSNGNTGTDALERQQTLGEMTLEDFLLRAGVVKEDNTQQNENSSSGFYANNGAAGLEFGFGQPNQNSISFNGNNSSMIMNQAPGLGLKVGGTMQQQQQPHQQQLQQPHQRLPPTIFPKQANVTFAAPVNMVNRGLFETSADGPANSNMGGAGGTVTATSPGTSSAENNTWSSPVPYVFGRGRRSNTGLEKVVERRQKRMIKNRESAARSRARKQAYTLELEAEIESLKLVNQDLQKKQAEIMKTHNSELKEFSKQPPLLAKRQCLRRTLTGPW
B3: ABF2, yeast two-hybrid fusion (protein, UniProt Q9M7Q4 1-416)
chain: MDGSMNLGNEPPGDGGGGGGLTRQGSIYSLTFDEFQSSVGKDFGSMNMDELLKNIWSAEETQAMASGVVPVLGGGQEGLQLQRQGSLTLPRTLSQKTVDQVWKDLSKVGSSGVGGSNLSQVAQAQSQSQSQRQQTLGEVTLEEFLVRAGVVREEAQVAARAQIAENNKGGYFGNDANTGFSVEFQQPSPRVVAAGVMGNLGAETANSLQVQGSSLPLNVNGARTTYQQSQQQQPIMPKQPGFGYGTQMGQLNSPGIRGGGLVGLGDQSLTNNVGFVQGASAAIPGALGVGAVSPVTPLSSEGIGKSNGDSSSLSPSPYMFNGGVRGRKSGTVEKVVERRQRRMIKNRESAARSRARKQAYTVELEAEVAKLKEENDELQRKQARIMEMQKNQETEMRNLLQGGPKKKLRRTESGPW
B4: ABF3, yeast two-hybrid fusion (protein, UniProt Q9M7Q3 1-454)
chain: MGSRLNFKSFVDGVSEQQPTVGTSLPLTRQNSVFSLTFDEFQNSWGGGIGKDFGSMNMDELLKNIWTAEESHSMMGNNTSYTNISNGNSGNTVINGGGNNIGGLAVGVGGESGGFFTGGSLQRQGSLTLPRTISQKRVDDVWKELMKEDDIGNGVVNGGTSGIPQRQQTLGEMTLEEFLVRAGVVREEPQPVESVTNFNGGFYGFGSNGGLGTASNGFVANQPQDLSGNGVAVRQDLLTAQTQPLQMQQPQMVQQPQMVQQPQQLIQTQERPFPKQTTIAFSNTVDVVNRSQPATQCQEVKPSILGIHNHPMNNNLLQAVDFKTGVTVAAVSPGSQMSPDLTPKSALDASLSPVPYMFGRVRKTGAVLEKVIERRQKRMIKNRESAARSRARKQAYTMELEAEIAQLKELNEELQKKQVEIMEKQKNQLLEPLRQPWGMGCKRQCLRRTLTGPW

target: T1, HISTONE … 9 (HDA9), yeast two-hybrid fusion (Arabidopsis thaliana); test: two-hybrid; Gal4 system, pDEST22 (activation domain) and pDEST32 (DNA-binding domain) in S. cerevisiae YRG2; growth on SD/-Trp-Leu-His with 25 mM 3-AT; empty vector as negative control

binding, no binding:
B1, B2, B3, B4
